Test results: publication PMC6185907
Results are given in words; binding and its absence hold for the method and conditions named. Binding calls can cover weak binding; strength is not graded here. Tags and fused reporters may be left off the sequences shown. For some of these results: Binding seen in cells or lysates may run through a third protein.

Amino acid sequences for entries named in this document (tags omitted). A change or cut given only in a name is not applied to a line headed by its entry.
UniProt Q9LX85: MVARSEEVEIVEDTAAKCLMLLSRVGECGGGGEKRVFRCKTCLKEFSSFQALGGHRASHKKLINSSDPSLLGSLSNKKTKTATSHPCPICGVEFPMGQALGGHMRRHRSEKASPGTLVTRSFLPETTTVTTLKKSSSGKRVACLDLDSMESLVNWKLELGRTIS

Experiments:
[1] = molecular target: T1, GST-Topless (N-terminal sequence of Topless, 1-188 AA) (UniProt Q94AI7); test: pull-down; in vitro GST pull-down; GST-Topless (1-188) with MBP-SRG1; western blot with anti-MBP or anti-GST antibodies; both purified
T1 sequence: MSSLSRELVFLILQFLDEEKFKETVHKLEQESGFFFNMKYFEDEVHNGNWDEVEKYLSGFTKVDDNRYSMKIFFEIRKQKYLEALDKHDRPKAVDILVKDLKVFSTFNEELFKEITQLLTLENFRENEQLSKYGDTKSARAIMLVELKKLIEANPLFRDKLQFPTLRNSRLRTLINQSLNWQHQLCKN

[2] = molecular target: T2, Topless, yeast two-hybrid fusion (UniProt Q94AI7); test: two-hybrid; yeast two-hybrid, Gal4 AD and BD fusions; spotted on SD-TL or SD-TLH with 5 mM 3-amino-1,2,4 triazole (3AT)
T2 sequence: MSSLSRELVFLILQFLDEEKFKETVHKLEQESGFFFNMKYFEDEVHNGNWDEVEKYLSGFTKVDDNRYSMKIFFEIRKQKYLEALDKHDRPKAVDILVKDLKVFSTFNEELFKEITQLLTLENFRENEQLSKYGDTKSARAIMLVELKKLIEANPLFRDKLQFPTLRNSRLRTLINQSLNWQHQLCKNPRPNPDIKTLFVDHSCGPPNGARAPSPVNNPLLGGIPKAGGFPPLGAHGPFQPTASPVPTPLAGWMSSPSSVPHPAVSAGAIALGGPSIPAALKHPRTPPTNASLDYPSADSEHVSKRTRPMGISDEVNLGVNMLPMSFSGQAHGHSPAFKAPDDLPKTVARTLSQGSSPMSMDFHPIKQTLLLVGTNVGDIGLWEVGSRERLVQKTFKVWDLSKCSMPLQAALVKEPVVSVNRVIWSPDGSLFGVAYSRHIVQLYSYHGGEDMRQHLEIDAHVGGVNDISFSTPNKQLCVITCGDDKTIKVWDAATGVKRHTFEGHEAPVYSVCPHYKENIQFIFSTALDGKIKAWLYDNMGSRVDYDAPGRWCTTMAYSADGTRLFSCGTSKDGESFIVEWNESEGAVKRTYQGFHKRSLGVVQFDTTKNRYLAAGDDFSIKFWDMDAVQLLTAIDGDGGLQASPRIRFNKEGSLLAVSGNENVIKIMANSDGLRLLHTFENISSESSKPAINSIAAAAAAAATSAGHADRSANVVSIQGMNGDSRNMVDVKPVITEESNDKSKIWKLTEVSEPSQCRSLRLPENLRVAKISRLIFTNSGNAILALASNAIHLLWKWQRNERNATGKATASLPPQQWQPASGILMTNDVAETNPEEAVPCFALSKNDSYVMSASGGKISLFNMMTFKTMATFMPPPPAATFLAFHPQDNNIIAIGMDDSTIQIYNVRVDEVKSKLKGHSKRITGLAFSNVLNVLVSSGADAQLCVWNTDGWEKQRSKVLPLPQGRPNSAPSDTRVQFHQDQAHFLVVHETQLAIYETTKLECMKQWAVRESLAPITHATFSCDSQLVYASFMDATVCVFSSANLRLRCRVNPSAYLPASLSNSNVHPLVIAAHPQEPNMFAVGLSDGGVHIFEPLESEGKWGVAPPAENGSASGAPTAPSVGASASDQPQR

[3] = molecular target: T3, Topless fused to the N-terminus of YFP (Topless-YN) (UniProt Q94AI7); test: split reporter; BiFC; Topless-YN and SRG-YC transiently co-expressed in N. benthamiana leaves by agroinfiltration; YFP fluorescence by confocal microscopy
T3 sequence: T2 sequence

binding [2] | Substance | also measured
 | Recombinant MBP-SRG1 (SNO-regulated gene1, C2H2 zinc finger transcription factor) (from UniProt Q9LX85) | binding [1]: binds
no binding | SRG1 deleted of the EAR motif (SRG1^Δ), yeast two-hybrid fusion (Arabidopsis) (domain or fragment) | 
 | SRG1 fused to the C-terminus of YFP (SRG-YC) (from UniProt Q9LX85) | binding [3]: binds
binds | SRG1, yeast two-hybrid fusion (from UniProt Q9LX85) | 
